PubChem BioAssay AID504834 (National Center for Advancing Translational Sciences (NCATS), 2011)
Hit rate of the full screen: of about 320,000 compounds, about 22,000 (6.9%) were called active. This list was built around the results that the source calls inconclusive (neither active nor inactive); the mix of calls is not that of the screen. Calls follow the shape of the dose curve; as a rule, active = well fitted inhibition curve with a large enough effect; inconclusive = small, poorly fitted or top-dose-only effect, or another doubt; inactive = no such curve, though single readings can be large or run the other way. Potencies of inconclusive entries are doubtful fits and often do not repeat.

Assay: Primary qHTS for delayed death inhibitors of the malarial parasite plastid, 96 hour incubation
Conditions: P. falciparum luciferase reporter growth; series mostly up to 28.7 µM; activity change, negative = inhibition: at the top concentration
Outline: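 Readout is luminescence from an integrated firefly luciferase in P. falciparum. Red cells, 2% hematocrit and 0.05% parasitemia final, were cultured with compound through two parasite generations (96 hours) at 37 C, 5% CO2.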
% is scaled to controls: 0 for no effect and ±100 for the full control effect; potency is read from the fitted curve at half-maximal effect.

SMILES	Potency	activity change, negative = inhibition
CCN1CCN(c2ncnc3c2sc(=S)n3-c2ccccc2)CC1	inconclusive: 18.5 µM [inhibitor, single point]	–
CCOc1ccc(N(CC(=O)NC2CCCCC2)C(=O)CNC(=O)c2cccs2)cc1	–	inactive: -15.6%
CCc1ccccc1NC(=O)C1=CN2CCS(=O)(=O)N=C2C=C1	–	inactive: 10.8%
COc1cc2cc(CCOC(=O)c3ccc(C#N)cc3)oc(=O)c2cc1OC	inconclusive: 0.657 µM [inhibitor, partial curve]	–
O=C(COc1ccccc1Cl)Nc1ccc(N2CCN(C(=O)c3ccccc3)CC2)cc1	–	inactive: 11.2%
Cc1ccc(-n2nnnc2SCC(=O)N2CCc3ccccc3C2)c(C)c1	active: 13.1 µM	–
CC(=O)N1CCCc2cc(S(=O)(=O)N(CC(C)C)CC(C)C)ccc21	inconclusive: 10.4 µM [inhibitor, partial curve]	–
COc1cc(C(=O)Nc2ccc(C)cn2)c([N+](=O)[O-])cc1OC	inconclusive: 11.7 µM [inhibitor, single point]	–
Cc1ccccc1C(=O)Nc1ccc(Cl)cn1	inconclusive: 10.4 µM [inhibitor, single point]	–
CCOC(=O)c1ccc(N2CCN(c3ccccc3F)CC2)c(NC(=O)Nc2ccccc2)c1	inconclusive: 2.94 µM [inhibitor, single point]	–
Cc1sc2ncnc(NCC(O)c3ccccc3)c2c1C (stereo not given)	–	inactive: 3.96%
CSc1ncccc1C(=O)Nc1ccc(S(=O)(=O)N2CCCC2)cc1	inconclusive: 0.0738 µM [inhibitor, full curve, poor fit]	–
CCCCc1nnc(NC(=O)c2ccc(-n3cncn3)c([N+](=O)[O-])c2)s1	inconclusive: 3.29 µM [inhibitor, partial curve]	–
CC(C)COc1ccc2[nH]c3c(c2c1)CCCC3=O	inconclusive: 18.5 µM [inhibitor, single point]	–
COC(=O)CC(c1ccc(F)cc1)n1c(C)ccc1C (stereo not given)	active: 13.1 µM	–
CCc1n[nH]c(=S)n1N=C1CCC(C)CC1 (stereo not given)	inconclusive: 1.31 µM [inhibitor, full curve, poor fit]	–
Cn1cc(CN2CCC(C(O)c3cccs3)CC2)c(-c2cccc(Cl)c2)n1 (stereo not given)	inconclusive: 2.94 µM [inhibitor, full curve]	–
Cc1ccc(C(=O)COC(=O)c2cn3ccccc3n2)cc1	–	inactive: 48%
O=C(Nc1ccccc1N1CCCC1)C1CCN(S(=O)(=O)c2cccc(C(F)(F)F)c2)CC1	active: 10.4 µM	–
O=C(NCC(c1ccco1)N1CCCC1)c1cccc(NS(=O)(=O)c2ccccc2)c1 (stereo not given)	inconclusive: 18.5 µM [inhibitor, single point]	–

Entries of single compounds as entered above. Order of values: Potency | activity change, negative = inhibition
Cc1ccccc1C(=O)Nc1ccc(Cl)cn1 in the list: inconclusive: 10.4 µM [inhibitor, single point] | –
COc1cc(C(=O)Nc2ccc(C)cn2)c([N+](=O)[O-])cc1OC in the list: inconclusive: 11.7 µM [inhibitor, single point] | –
